Source: patent publication US20050090649 (published 2005)

Test: general procedure: Fmoc solid-phase peptide synthesis in flow
Details: whole synthesis, based on the level of substitution of the resin

Row | Substance | crude yield [%]
1 | Arg-Pro-Lys-Pro-Gln-Gln-Phe-Phe-Gly-Leu-Met-Gly-Gly-Gin-Gin-Cys-Thr-Ile-Cys-Gly-Ala-Pro-Aib-Ser-Ile-Ile-NH2 | 80
2 | CGGQQCTICGAP[Aib]SII-NH2 (cysteine pairing not given here) | 85

Non-standard residues stand in square brackets, D forms with d. No end group written: not given here. Aib = CC(C)(N)C(=O)O
